Measured values published in article PMC9830426.
No constants are given. Whether binding was seen depends on the method and setting. In cells and extracts the contact can be indirect. Some binding calls cover weakened binding; strength is not graded here. For some of these results: Sequences can lack the tags named with a protein. Values belong to the binder of their own block, whether it stands above or below them.

How the values were obtained:
FLAG-tagged FAM3C = target: T1, FLAG-tagged FAM3C (UniProt Q92520); experiment: co-IP; HEK293T cells co-transfected with FLAG-FAM3C and HA-RalA; immunoprecipitation with anti-FLAG M2 magnetic beads, immunoblot
T1 sequence: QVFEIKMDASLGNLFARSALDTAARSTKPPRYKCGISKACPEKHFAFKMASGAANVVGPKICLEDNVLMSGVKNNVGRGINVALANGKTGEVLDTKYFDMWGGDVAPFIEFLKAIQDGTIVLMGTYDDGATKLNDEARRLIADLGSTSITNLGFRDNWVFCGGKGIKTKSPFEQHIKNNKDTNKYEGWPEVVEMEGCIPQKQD

[1] = target: T2, endogenous FAM3C (human (endogenous in SKMES-1 and A549)) (UniProt Q92520); experiment: proximity ligation; Duolink in situ PLA on A549 cells fixed with 4% paraformaldehyde; incubations at 37 °C
T2 sequence: T1 sequence

[2] = target: T3, FAM3C overexpressed in A549 cells (FAM3C_ox) (UniProt Q92520); experiment: as above
T3 sequence: T1 sequence

[3] = target: T2, endogenous FAM3C (human (endogenous in SKMES-1 and A549)); experiment: co-IP; endogenous proteins in SKMES-1 cells; immunoprecipitation with anti-FAM3C antibody, immunoblot with FAM3C and RalA antibodies

binding (FLAG-tagged FAM3C): binds
B1: HA-tagged RalA (protein, UniProt P11233 1-206)
chain: MAANKPKGQNSLALHKVIMVGSGGVGKSALTLQFMYDEFVEDYEPTKADSYRKKVVLDGEEVQIDILDTAGQEDYAAIRDNYFRSGEGFLCVFSITEMESFAATADFREQILRVKEDENVPFLLVGNKSDLEDKRQVSVEEAKNRAEQWNVNYVETSAKTRANVDKVFFDLMREIRARKMEDSKEKNGKKKRKSLAKRIRERCCIL

binding [1]: binds
binding [2]: binds
binding [3]: binds
B2: endogenous RalA (protein, UniProt P11233 1-206)
chain: B1 chain
